Data published in PubChem BioAssay AID540276 (National Center for Advancing Translational Sciences (NCATS), 2011).
The campaign covered roughly 300,000 compounds. About 5,400 (1.8%) were called active. The shares of active, inactive and inconclusive entries below differ from those in the screen. Calls follow the shape of the full dose curve; tested in HEK293 cells. A potency beside an inconclusive call is a rough fit, not a confirmed value.

test: qHTS for inhibitors of binding or entry into cells for Marburg Virus; settings: Marburg virus pseudotyped entry inhibition, cell reporter; activity change, negative = inhibition: at 37.8 µM (top of the series) unless noted
% is scaled to controls: 0 for no effect and ±100 for the full control effect; potency is read from the fitted curve at half-maximal effect.

| SMILES | Potency | activity change, negative = inhibition |
| --- | --- | --- |
| Cn1ccc2c(-c3cncc4ccccc34)cc3c(c21)C1CCC3O1 (stereo not drawn) | inconclusive: 1.99 µM [inhibitor, full curve] | – |
| COc1ccc(-c2nc(CS(=O)(=O)CC(=O)NCc3ccc(F)cc3)c(C)o2)cc1 | – | inconclusive: 8.33% [activator] [at 46.1 µM] |
| COc1cccc(C2Nc3ccccc3C(=O)N2c2ccc(F)cc2)c1O (stereo not drawn) | inconclusive: 11.2 µM [activator, partial curve, poor fit] | – |
| CCOC(=O)C1CCCN(Cc2cc(=O)oc3cc(C)c(C(C)C)cc23)C1 (stereo not drawn) | inactive | – |
| CCOc1ccc(CCNC(=O)c2ccc(C)c(NC3=NC4CS(=O)(=O)CC4S3)c2)cc1 (stereo not drawn) | inactive | – |
| CC(C)Sc1nc2ccc(Br)cc2[nH]1 | inconclusive: 35.5 µM [activator, single point] | – |
| CN(C)C=NC1=NN(c2cccc(C(F)(F)F)c2)CC1 | inactive | – |
| CCN(CC)CCCC(C)NC(=O)c1cccc(S(=O)(=O)N2CCc3ccccc32)c1 (stereo not drawn) | inconclusive: 35.5 µM [inhibitor, single point] | – |
| COc1ccc(C)cc1N(C(=O)c1ccccc1)c1nc2ccccc2s1 | inconclusive: 5.01 µM [inhibitor, full curve, poor fit] | – |
| Cn1nnnc1Sc1ncnc2scc(-c3ccccc3)c12 | active: 7.08 µM | – |
| Cc1c(C(=O)Nc2ccc(Oc3ccccc3)cc2)sc2nc3n(c(=O)c12)CCC3 | inconclusive: 35.5 µM [inhibitor, single point] | – |
| COc1ccc(NC(=S)N(CCN(C)C)C(C)c2ccco2)cc1 (stereo not drawn) | inconclusive: 15.8 µM [activator, single point] | – |
| Cc1cccc(CN2CCN(CC(=O)NCCc3ccc(Cl)cc3)C2=O)c1 | inactive | – |
| Cc1ccccc1-c1coc2cc(O)ccc2c1=O | inconclusive: 8.91 µM [activator, partial curve, poor fit] | – |
| CNC(=O)c1cc(NC(=O)CCn2nc(-c3ccc(C)cc3)c3ccccc3c2=O)ccc1OC | inconclusive: 3.16 µM [activator, single point] | – |
| Cc1ccc(NS(=O)(=O)c2ccc(C(=O)N3CCN(S(=O)(=O)c4ccccc4)CC3)cc2)cc1 | inconclusive: 35.5 µM [inhibitor, single point] | – |
| COc1ccc(NC(=S)N2CCN(Cc3ccco3)CC2)c(OC)c1 | inconclusive: 2.82 µM [inhibitor, single point] | – |
| O=C(COC(=O)c1cc2c(s1)CCC2)Nc1ccc(F)cc1 | inconclusive: 12.6 µM [activator, partial curve, poor fit] | – |
| Clc1ccc(C(c2ccc(Cl)cc2)n2cc[n+](CC(OCc3ccc(Cl)cc3Cl)c3ccc(Cl)cc3Cl)c2)cc1 (stereo not drawn) | active: 12.6 µM | – |
| Cc1ccc2nc(SCC(=O)N3CCC(C)CC3)nc(=O)n2c1 | inconclusive: 5.62 µM [activator, single point] | – |
| Cc1ccc(Nc2nc(-c3ccc(O)cc3O)cs2)nc1 | active: 4.47 µM | – |
| C=CCc1cc(C)ccc1OCC(O)CN1CCN(c2ccccc2)CC1 (stereo not drawn) | inactive | – |
| COc1ccc(-c2[nH]ncc2CN2C[C@@H]3CCC[C@H]2C3)c(F)c1 | inconclusive: 35.5 µM [activator, single point] | – |

Random excerpt: four compounds from above

| SMILES | Potency | activity change, negative = inhibition |
| --- | --- | --- |
| COc1cccc(C2Nc3ccccc3C(=O)N2c2ccc(F)cc2)c1O (stereo not drawn) | inconclusive: 11.2 µM [activator, partial curve, poor fit] | – |
| CCOc1ccc(CCNC(=O)c2ccc(C)c(NC3=NC4CS(=O)(=O)CC4S3)c2)cc1 (stereo not drawn) | inactive | – |
| Cc1ccc(NS(=O)(=O)c2ccc(C(=O)N3CCN(S(=O)(=O)c4ccccc4)CC3)cc2)cc1 | inconclusive: 35.5 µM [inhibitor, single point] | – |
| Clc1ccc(C(c2ccc(Cl)cc2)n2cc[n+](CC(OCc3ccc(Cl)cc3Cl)c3ccc(Cl)cc3Cl)c2)cc1 (stereo not drawn) | active: 12.6 µM | – |

(next part)

| SMILES | Potency | activity change, negative = inhibition |
| --- | --- | --- |
| Cc1ccccc1NS(=O)(=O)c1ccc(N2CCCC2=O)cc1 | inconclusive: 3.66 µM [inhibitor, partial curve] | – |
| COc1cccc(NC(=O)CCc2nnc3ccc(N4CCC(C)CC4)nn23)c1 | inactive | – |
| COCCCNCCOCCOc1ccc(Cl)cc1Br | active: 11.6 µM | – |
| CN(C)S(=O)(=O)c1cccc(NC(=O)c2ccc(S(=O)(=O)N3CCCCC3)cc2)c1 | inconclusive: 17.8 µM [inhibitor, single point] | – |
| CN(C(=O)COC(=O)c1cc([N+](=O)[O-])ccc1Sc1ccccc1)C1CCS(=O)(=O)C1 (stereo not drawn) | – | inconclusive: 1.76% [activator] [at 46.1 µM] |
| CCNC(=O)NNC(=O)C1CC(c2cccs2)=NO1 (stereo not drawn) | inconclusive: 35.5 µM [inhibitor, single point] | – |
| CC1CCN(C(=O)c2cc3nc(-c4ccccc4)cc(-c4ccccc4)n3n2)CC1 | inconclusive: 10.3 µM [inhibitor, single point] | – |
| CCOc1ccc(NC(=O)c2cnccn2)cc1 | inconclusive: 22.4 µM [inhibitor, single point] | – |
| CCOc1ccc(N(Cc2ccccc2)C(=O)c2nc(SC)ncc2Cl)cc1 | inconclusive: 3.98 µM [inhibitor, single point] | – |
| Brc1ccc(OCCOCCOc2cccc3cccnc23)cc1 | inconclusive: 4.47 µM [activator, single point] | – |
| COc1cccc(C(=O)c2cn(CC(=O)NCc3ccco3)c3nc(C)ccc3c2=O)c1 | inactive | – |
| O=C(Nc1cccc(O)c1)c1ccc(C(=O)c2ccccc2)o1 | inconclusive: 35.5 µM [inhibitor, single point] | – |
| CCc1ccc(-c2nc(SCC(=O)NC3CCCC3)n[nH]2)cc1 | inconclusive: 12.6 µM [inhibitor, single point] | – |
| CCc1ccccc1NC(=O)C1C2C=CC(O2)C1C(=O)O (stereo not drawn) | inactive | – |
| CC(C)CCOc1ccc(Cl)cc1CN1CCOCC1 | inconclusive: 4.47 µM [inhibitor, single point] | – |
| COC(=O)CSc1nnc(CNC(=O)c2cc(OC)cc(OC)c2)n1-c1ccc(F)cc1 | inconclusive: 0.562 µM [inhibitor, full curve, poor fit] | – |
| Cc1oc(-c2cccs2)nc1CS(=O)CC(=O)NCCCN1CC(C)CC(C)C1 (stereo not drawn) | inactive | – |
| CNc1nc(C)cc(C)c1S(=O)(=O)c1ccc(C)cc1 | inconclusive: 35.5 µM [inhibitor, single point] | – |
| Cn1c(=O)c2c(nc(CN3CCN(c4ccccc4F)CC3)n2Cc2ccc(F)cc2)n(C)c1=O | inconclusive: 1.58 µM [inhibitor, partial curve, poor fit] | – |
| CCn1c(O)c(C(=O)C[C@@H]2NCCc3ccccc32)c(=O)n(CC)c1=S | inactive | – |
| COc1ccc(/C=N/Nc2cc(C)nc(-n3nc(C)cc3C)n2)c(OC)c1 | inconclusive: 23.1 µM [inhibitor, single point] | – |
| CC(C)(C)c1nn(-c2ccccc2)c2[nH]c(=O)c(CNCc3ccco3)cc12 | inactive | – |
| O=C(COC(=O)c1ccco1)c1ccc(Cl)cc1 | inconclusive: 2.82 µM [activator, partial curve, poor fit] | – |

| SMILES | Potency | activity change, negative = inhibition |
| --- | --- | --- |
| O=C(CCC1CCCN(C(=O)Cc2cccc(F)c2)C1)N1CCN(c2ccccn2)CC1 (stereo not drawn) | inconclusive: 8.91 µM [inhibitor, partial curve, poor fit] | – |
| CC(OC(=O)CC1CCCCC1)C(=O)Nc1cccc(C#N)c1 (stereo not drawn) | inactive | – |
| O=C(Nc1cccc(Cl)c1)OCCOC(=O)Nc1cccc(Cl)c1 | inconclusive: 12.6 µM [inhibitor, single point] | – |
| CCOC(=O)C1(CCOc2ccccc2)CCN(Cc2ccc(CO)o2)CC1 | inconclusive: 15.8 µM [inhibitor, partial curve, poor fit] | – |
| CCN(CC)CCn1c(=N)n(CC(=O)c2ccc(Br)s2)c2ccccc21 | active: 7.08 µM | – |
| C=C[C@@]1(C)CCC=C2C(=O)CCC[C@H]21 | inconclusive: 0.0042 µM [inhibitor, full curve, poor fit] | – |
| CCn1c(C)nc2cc(C(=O)N/N=C/c3ccc(O)c(O)c3O)ccc21 | inconclusive: 11.2 µM [inhibitor, partial curve, poor fit] | – |
| CCOC(=O)c1c(NC(=O)COc2ccccc2OCC)sc2c1CC(C)(C)NC2(C)C | inconclusive: 20 µM [inhibitor, partial curve, poor fit] | – |
| CNC(=O)c1ccccc1NC(=O)c1ccc(C)c(S(=O)(=O)N2CCCCC2)c1 | inactive | – |
| CCCN(CCC)CCNS(=O)(=O)c1ccc2c(c1)CCN2C(=O)C1CCC1 | inconclusive: 32.6 µM [inhibitor, single point] | – |
| CCOc1cc2c(cc1OCC)-n1cccc1C(c1ccc(OC)cc1)NC2 (stereo not drawn) | inconclusive: 10 µM [inhibitor, partial curve, poor fit] | – |
| CC(=N\O)/C(CN(C)C)=N/O | inconclusive: 5.62 µM [inhibitor, single point] | – |
| N#Cc1c(N2CCN(C(=O)c3ccco3)CC2)nc(-c2ccccc2)c2c1CCCC2 | inconclusive: 29.1 µM [inhibitor, single point] | – |
| O=C(Nc1ncccc1O)c1ccc2ccccc2c1 | inconclusive: 7.94 µM [inhibitor, partial curve, poor fit] | – |
| Cc1cc(C)cc(NC(=O)CCN2C(=O)c3ccccc3C2=O)c1 | inactive | – |
| CC(C)CN1CCC(Oc2cccc(C(=O)NCCc3ccccc3)c2)CC1 | inactive | – |
| CCN(CC)S(=O)(=O)c1cccc(NC(=O)c2ccc(C#N)cc2)c1 | inconclusive: 11.2 µM [inhibitor, single point] | – |
| CCCCc1nc2ccccc2c(N)c1CCC (tested in a mixture with another compound) | active: 17.8 µM | – |
| COCCNCCCCOc1ccccc1-c1ccccc1 | inconclusive: 32.6 µM [inhibitor, single point] | – |
| C[C@@H]1C(NC(=O)c2ccccc2)CC2CC1C2(C)C (stereo partly drawn) | inconclusive: 11.2 µM [inhibitor, single point] | – |
| CCc1nnc(NC(=O)C2CCN(C(=O)c3ccccc3C)CC2)s1 | inactive | – |
| Cc1ccc(C)c(OCCn2cc(/C=C(\C#N)C(=O)NCc3ccco3)c3ccccc32)c1 | inconclusive: 35.5 µM [inhibitor, single point] | – |
